# Test results from PMC8327186.
# Sequences of proteins named here, by UniProt entry; tags and fusion partners are left off.
# UniProt Q63262: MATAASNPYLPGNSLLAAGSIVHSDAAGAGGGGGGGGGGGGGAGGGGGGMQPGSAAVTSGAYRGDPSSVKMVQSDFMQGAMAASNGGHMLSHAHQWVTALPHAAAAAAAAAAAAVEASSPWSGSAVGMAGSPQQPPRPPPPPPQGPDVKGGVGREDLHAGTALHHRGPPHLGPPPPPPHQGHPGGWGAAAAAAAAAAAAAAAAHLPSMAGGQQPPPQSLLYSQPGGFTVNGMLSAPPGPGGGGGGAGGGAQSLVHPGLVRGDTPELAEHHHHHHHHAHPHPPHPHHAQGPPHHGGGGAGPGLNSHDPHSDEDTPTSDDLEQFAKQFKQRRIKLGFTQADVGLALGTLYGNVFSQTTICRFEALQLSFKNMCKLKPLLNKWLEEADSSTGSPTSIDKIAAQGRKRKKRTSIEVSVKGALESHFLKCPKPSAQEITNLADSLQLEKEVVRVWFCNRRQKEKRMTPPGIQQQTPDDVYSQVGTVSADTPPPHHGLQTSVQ
# UniProt Q60722: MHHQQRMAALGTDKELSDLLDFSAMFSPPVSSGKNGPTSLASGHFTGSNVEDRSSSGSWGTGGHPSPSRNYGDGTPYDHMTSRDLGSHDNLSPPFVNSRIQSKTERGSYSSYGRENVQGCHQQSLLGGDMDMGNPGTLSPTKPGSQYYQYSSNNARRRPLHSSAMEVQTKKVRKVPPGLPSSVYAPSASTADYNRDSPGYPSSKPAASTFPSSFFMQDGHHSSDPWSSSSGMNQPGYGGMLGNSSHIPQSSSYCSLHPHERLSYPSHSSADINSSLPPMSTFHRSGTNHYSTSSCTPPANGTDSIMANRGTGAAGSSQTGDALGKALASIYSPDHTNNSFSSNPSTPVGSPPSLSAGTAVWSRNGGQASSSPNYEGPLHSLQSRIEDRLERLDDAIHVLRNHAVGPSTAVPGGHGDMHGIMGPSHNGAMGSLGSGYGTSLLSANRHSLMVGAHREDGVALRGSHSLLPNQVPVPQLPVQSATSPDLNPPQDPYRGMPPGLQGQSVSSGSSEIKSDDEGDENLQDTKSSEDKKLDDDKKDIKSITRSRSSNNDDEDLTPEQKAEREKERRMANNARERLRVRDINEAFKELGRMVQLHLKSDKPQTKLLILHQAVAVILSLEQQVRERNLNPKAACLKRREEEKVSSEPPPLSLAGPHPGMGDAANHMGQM
# UniProt Q60987: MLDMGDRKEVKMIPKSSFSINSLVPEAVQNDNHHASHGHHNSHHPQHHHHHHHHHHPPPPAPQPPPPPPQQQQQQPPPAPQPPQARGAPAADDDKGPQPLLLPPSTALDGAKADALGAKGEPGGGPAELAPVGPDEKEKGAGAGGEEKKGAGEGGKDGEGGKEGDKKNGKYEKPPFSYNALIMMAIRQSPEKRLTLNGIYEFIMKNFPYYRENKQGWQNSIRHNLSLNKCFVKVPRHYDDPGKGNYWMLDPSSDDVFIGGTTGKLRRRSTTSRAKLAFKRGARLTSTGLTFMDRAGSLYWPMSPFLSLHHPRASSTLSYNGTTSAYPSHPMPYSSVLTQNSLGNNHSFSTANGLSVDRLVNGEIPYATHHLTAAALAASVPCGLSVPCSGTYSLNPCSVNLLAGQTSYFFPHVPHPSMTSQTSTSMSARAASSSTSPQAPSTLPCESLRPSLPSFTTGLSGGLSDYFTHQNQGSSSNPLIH
# UniProt Q3TKT4: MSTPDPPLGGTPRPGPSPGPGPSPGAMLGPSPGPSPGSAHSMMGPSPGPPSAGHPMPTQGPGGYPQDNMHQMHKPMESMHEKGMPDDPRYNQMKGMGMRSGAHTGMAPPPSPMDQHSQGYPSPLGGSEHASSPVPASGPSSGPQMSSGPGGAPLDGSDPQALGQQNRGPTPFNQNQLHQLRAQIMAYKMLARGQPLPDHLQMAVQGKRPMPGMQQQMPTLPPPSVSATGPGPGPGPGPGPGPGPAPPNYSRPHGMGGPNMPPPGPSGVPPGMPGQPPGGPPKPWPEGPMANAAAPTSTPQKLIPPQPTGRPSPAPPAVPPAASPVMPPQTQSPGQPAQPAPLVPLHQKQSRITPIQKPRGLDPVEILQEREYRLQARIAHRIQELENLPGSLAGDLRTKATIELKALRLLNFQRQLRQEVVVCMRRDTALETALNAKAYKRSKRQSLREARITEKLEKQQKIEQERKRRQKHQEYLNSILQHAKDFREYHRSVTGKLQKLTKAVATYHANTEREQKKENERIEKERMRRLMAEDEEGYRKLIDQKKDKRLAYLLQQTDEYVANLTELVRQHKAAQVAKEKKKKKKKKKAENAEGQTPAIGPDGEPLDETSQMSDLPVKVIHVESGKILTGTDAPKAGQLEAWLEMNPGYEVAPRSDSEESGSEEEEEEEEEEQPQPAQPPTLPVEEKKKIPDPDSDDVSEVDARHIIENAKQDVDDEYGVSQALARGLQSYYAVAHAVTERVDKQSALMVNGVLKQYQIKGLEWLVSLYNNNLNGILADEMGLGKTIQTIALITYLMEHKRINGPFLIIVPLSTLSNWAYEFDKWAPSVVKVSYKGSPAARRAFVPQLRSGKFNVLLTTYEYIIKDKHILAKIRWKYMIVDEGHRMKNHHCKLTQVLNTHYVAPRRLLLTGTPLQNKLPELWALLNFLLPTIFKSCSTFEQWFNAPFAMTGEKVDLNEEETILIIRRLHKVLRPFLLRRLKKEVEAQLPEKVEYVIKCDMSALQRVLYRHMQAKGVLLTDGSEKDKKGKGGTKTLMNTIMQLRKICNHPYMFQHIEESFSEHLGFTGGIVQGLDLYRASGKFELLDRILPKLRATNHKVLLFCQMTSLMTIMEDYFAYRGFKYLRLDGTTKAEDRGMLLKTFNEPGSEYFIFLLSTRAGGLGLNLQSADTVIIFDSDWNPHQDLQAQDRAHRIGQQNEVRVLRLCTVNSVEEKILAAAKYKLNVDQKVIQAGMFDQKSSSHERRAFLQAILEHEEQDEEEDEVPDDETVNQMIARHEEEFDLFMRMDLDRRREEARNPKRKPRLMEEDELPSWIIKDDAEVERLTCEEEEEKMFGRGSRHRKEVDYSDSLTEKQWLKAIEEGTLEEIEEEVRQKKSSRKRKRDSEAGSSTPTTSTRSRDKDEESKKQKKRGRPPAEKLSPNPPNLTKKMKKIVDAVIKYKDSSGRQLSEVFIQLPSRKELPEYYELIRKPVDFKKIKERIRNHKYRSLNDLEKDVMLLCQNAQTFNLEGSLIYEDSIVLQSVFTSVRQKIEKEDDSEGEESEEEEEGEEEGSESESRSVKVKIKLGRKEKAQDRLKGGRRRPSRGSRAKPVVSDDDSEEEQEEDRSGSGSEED
# UniProt P15884: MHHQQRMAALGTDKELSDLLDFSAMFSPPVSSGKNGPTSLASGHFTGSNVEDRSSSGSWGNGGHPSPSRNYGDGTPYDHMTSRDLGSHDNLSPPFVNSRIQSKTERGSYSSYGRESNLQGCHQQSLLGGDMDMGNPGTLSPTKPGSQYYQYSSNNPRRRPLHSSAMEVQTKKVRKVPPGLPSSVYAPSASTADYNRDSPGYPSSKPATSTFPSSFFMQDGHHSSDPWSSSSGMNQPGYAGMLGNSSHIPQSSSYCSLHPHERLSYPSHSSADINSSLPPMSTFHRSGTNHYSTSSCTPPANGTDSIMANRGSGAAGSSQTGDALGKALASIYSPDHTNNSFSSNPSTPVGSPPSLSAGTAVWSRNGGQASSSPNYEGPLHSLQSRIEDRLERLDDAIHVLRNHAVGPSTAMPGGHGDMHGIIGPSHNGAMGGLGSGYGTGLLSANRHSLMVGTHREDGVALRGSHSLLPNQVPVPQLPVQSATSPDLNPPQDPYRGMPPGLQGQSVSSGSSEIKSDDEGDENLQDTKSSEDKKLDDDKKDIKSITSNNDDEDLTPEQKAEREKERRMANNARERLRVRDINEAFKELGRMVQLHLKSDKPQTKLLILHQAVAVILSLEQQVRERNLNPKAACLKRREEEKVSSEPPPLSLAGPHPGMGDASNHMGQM
# UniProt P51532: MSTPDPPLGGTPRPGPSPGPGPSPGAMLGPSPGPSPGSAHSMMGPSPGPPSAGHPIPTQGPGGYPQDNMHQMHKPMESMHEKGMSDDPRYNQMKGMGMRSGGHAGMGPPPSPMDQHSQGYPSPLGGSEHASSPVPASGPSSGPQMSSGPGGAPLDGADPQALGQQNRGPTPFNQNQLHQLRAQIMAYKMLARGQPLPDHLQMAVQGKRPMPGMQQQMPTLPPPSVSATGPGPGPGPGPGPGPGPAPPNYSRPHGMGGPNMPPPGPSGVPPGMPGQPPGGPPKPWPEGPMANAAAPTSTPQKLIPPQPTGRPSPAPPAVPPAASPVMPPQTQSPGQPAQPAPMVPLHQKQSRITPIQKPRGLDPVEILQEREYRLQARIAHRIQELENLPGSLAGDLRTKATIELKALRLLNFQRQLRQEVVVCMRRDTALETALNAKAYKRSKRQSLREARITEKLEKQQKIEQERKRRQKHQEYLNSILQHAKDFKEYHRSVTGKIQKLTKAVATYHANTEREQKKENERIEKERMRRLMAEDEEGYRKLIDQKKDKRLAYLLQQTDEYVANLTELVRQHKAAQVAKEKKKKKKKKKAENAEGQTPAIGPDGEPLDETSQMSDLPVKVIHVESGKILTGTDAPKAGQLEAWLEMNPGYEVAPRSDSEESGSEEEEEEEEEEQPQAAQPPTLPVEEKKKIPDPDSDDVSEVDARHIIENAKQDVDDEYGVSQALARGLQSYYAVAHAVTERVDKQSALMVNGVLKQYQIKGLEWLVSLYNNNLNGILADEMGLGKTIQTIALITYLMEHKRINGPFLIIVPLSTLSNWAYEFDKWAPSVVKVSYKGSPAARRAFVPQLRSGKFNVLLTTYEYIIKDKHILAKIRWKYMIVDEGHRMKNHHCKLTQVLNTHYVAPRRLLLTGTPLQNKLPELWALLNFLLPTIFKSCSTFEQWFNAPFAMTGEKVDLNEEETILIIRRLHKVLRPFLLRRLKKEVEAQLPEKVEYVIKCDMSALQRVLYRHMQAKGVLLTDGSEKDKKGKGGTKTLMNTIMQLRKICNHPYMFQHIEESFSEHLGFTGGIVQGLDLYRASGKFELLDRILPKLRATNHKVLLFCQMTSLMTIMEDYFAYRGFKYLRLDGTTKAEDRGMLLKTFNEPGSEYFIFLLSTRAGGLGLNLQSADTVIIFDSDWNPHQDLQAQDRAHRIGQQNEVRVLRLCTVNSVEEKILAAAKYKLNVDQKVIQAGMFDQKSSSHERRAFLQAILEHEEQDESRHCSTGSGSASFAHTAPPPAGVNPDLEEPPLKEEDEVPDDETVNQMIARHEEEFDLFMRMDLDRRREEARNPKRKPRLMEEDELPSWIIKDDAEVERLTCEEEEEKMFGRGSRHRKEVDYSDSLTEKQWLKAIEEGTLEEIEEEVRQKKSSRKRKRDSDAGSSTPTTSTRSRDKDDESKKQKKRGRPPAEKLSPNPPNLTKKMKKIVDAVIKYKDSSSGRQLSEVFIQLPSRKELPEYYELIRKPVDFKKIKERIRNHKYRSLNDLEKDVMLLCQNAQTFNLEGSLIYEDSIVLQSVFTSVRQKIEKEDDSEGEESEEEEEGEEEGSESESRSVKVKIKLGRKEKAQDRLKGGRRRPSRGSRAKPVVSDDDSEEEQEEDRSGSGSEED
# UniProt Q7M6Y2: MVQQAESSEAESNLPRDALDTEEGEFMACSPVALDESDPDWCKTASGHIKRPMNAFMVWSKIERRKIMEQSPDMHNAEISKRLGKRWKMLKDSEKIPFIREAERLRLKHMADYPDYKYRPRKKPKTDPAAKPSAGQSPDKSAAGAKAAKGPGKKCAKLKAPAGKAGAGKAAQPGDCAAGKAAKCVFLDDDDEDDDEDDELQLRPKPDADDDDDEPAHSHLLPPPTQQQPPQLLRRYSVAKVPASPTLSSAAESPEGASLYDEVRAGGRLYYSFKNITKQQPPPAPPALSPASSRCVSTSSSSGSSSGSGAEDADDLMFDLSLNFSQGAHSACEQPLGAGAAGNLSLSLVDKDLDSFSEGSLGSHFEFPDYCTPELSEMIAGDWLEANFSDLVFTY
# Residue numbers refer to the chain shown, from its start. These are yes or no findings as the source states them, for the method shown. Binding seen in cells or lysates may run through a third protein. Some binding calls cover weakened binding; strength is not graded here.
# B1: POU3F3 (BRN1), endogenous in differentiated mouse neural stem cells (protein, UniProt P31361 1-497)
# chain: MATAASNPYLPGNSLLTAGSIVHSDAAGAGGGGGGGGGGGGGAGGGGGGMQPGSAAVTSGAYRGDPSSVKMVQSDFMQGAMAASNGGHMLSHAHQWVTALPHAAAAAAAAAAAAVEASSPWSGSAVGMAGSPQQPPQPPPPPPQGPDVKGGAGREDLHAGTALHHRGPPHLGPPPPPPHQGHPGGWGAAAAAAAAAAAAAAAAHLPSMAGGQQPPPQSLLYSQPGGFTVNGMLSAPPGPGGGGGGAGGGAQSLVHPGLVRGDTPELAEHHHHHHHHAHPHPPHPHHAQGPPHHGGGGAGPGLNSHDPHSDEDTPTSDDLEQFAKQFKQRRIKLGFTQADVGLALGTLYGNVFSQTTICRFEALQLSFKNMCKLKPLLNKWLEEADSSTGSPTSIDKIAAQGRKRKKRTSIEVSVKGALESHFLKCPKPSAQEITNLADSLQLEKEVVRVWFCNRRQKEKRMTPPGIQQQTPDDVYSQVGTVSADTPPPHHGLQTSVQ
# B2: POU3F3 (BRN1), overexpressed from pCMV5 rBrn1 (protein, UniProt Q63262 1-497)
# chain: B1 chain with T17A, Q137R, A152V
# Target: TCF4, endogenous in differentiated mouse neural stem cells (isoform not told apart) (mouse (endogenous in neural stem cells from E14.5 neocortex)) (UniProt Q60722)
# Assay: proximity ligation; fixed 6 day differentiated neural stem cells derived from E14.5 mouse neocortices; mouse monoclonal anti-TCF4 with rabbit anti-BRN1, anti-BRG1 or anti-FOXG1
row,binding,Molecule
1,binds,"FOXG1, endogenous in differentiated mouse neural stem cells (from UniProt Q60987 1-481)"
2,binds,"SMARCA4 (BRG1), endogenous in differentiated mouse neural stem cells (from UniProt Q3TKT4 1-1613)"
3,binds,B1

# Target: Transcription factor 4, long isoform (TCF4B), overexpressed from CAG-TCF4-IRES-GFP (UniProt P15884)
# Assay: co-IP; HEK 293T cell extract after co-overexpression of TCF4 and one partner; precipitated with mouse monoclonal anti-TCF4 (sc393407) and Protein A agarose beads in TEN-Buffer (10 mM Tris pH 7.4, 50 mM NaCl, NP40), 4°C overnight; controls: anti-BrdU isotype IgG, beads alone; western blot
row,binding,Molecule
1,binds,"CUX1 (p200 CUX1), overexpressed from pXJ42-p200 CUX1 (from UniProt P39880 1-1505)"
2,binds,"FOXG1, overexpressed from CAG-Foxg1-IRES-RFP (from UniProt Q60987 1-481)"
3,binds,"SMARCA4 (BRG1), overexpressed from pBJ5-hBRG1 (from UniProt P51532 1-1647)"
4,binds,"SOX11, overexpressed from CAG-Sox11-IRES-GFP (from UniProt Q7M6Y2 1-395)"
5,binds,B2
